The text below walks through data of the supplement of paper PMC12425257.

± gives the standard deviation of the averaged measurements. The list shows a part of the results.

The assay concerns Madurella mycetomatis MM55. Kind of assay: metabolic activity (growth) relative to DMSO growth control; higher = more fungal growth.

Turning to `C=CC(=O)Nc1cc(-c2nn(C3CCC(N4CCN(C(C)=O)CC4)CC3)c3ncnc(N)c23)ccc1Oc1ccccc1` (stereo unspecified), the metabolic activity came to 120 ± 8.2% (1 µM), 129 ± 49% (2 µM) and 132 ± 6.4% (10 µM).
Regarding `OCC1OC(n2cnc3cc(Cl)c(Cl)cc32)C(O)C1O` (stereo unspecified), the metabolic activity is, setting by setting: (1 µM) 75.9 ± 13%; (2 µM) 95.6 ± 3.1%; (10 µM) 93.5 ± 18%.
